The values below come from the supplement of paper PMC6411743.

By UniProt entry, the sequences of proteins in these tests, tags left out. Where a name states a change or a piece, a line headed by the entry shows the natural chain unless it says otherwise.
UniProt Q0VDG4: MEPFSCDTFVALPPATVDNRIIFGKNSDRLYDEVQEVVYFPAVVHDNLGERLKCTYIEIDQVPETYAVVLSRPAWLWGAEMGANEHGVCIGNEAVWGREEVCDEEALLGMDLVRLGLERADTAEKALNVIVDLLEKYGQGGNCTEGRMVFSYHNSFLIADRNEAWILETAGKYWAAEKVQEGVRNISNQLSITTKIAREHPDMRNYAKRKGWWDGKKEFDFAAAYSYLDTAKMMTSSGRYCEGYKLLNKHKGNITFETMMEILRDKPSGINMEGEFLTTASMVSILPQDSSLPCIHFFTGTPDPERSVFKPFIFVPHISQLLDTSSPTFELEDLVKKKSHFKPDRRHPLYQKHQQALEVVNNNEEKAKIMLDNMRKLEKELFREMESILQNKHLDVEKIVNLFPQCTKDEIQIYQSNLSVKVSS
UniProt Q9NXU5: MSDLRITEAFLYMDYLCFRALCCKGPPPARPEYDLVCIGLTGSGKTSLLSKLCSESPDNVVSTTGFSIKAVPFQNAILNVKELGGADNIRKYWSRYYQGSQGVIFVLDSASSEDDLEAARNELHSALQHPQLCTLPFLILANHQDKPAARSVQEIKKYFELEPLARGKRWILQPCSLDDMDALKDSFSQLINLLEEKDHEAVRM
UniProt Q9NRW7: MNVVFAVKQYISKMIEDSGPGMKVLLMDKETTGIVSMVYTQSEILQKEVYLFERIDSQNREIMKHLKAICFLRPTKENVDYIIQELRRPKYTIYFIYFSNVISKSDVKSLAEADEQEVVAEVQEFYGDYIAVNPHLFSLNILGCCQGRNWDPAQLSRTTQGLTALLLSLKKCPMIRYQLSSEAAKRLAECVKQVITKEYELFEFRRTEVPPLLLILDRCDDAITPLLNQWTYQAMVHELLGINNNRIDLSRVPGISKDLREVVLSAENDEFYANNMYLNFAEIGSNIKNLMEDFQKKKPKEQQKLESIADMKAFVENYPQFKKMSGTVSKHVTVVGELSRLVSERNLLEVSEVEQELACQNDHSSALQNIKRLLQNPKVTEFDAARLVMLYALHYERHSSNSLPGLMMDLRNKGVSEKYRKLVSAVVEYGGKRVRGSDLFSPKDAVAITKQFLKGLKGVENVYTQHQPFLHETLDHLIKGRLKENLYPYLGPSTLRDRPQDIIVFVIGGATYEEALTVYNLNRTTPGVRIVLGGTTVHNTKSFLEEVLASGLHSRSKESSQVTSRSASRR
UniProt Q6PGQ7, whole entry, looked up: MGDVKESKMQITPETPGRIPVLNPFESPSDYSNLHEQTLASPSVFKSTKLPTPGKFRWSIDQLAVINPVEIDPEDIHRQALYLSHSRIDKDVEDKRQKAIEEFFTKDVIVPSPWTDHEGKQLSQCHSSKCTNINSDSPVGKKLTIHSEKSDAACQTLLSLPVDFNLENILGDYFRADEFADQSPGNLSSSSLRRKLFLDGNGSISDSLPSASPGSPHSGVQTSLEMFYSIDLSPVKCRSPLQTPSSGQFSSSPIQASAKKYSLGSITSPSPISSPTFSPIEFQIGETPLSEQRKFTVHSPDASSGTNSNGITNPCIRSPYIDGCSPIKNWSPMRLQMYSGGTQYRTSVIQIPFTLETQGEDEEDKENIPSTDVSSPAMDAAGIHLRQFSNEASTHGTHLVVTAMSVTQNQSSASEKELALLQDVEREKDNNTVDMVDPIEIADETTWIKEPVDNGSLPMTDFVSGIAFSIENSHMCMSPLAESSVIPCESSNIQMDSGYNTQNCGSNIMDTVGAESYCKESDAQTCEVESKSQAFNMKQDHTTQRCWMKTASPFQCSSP
UniProt Q9UKL3: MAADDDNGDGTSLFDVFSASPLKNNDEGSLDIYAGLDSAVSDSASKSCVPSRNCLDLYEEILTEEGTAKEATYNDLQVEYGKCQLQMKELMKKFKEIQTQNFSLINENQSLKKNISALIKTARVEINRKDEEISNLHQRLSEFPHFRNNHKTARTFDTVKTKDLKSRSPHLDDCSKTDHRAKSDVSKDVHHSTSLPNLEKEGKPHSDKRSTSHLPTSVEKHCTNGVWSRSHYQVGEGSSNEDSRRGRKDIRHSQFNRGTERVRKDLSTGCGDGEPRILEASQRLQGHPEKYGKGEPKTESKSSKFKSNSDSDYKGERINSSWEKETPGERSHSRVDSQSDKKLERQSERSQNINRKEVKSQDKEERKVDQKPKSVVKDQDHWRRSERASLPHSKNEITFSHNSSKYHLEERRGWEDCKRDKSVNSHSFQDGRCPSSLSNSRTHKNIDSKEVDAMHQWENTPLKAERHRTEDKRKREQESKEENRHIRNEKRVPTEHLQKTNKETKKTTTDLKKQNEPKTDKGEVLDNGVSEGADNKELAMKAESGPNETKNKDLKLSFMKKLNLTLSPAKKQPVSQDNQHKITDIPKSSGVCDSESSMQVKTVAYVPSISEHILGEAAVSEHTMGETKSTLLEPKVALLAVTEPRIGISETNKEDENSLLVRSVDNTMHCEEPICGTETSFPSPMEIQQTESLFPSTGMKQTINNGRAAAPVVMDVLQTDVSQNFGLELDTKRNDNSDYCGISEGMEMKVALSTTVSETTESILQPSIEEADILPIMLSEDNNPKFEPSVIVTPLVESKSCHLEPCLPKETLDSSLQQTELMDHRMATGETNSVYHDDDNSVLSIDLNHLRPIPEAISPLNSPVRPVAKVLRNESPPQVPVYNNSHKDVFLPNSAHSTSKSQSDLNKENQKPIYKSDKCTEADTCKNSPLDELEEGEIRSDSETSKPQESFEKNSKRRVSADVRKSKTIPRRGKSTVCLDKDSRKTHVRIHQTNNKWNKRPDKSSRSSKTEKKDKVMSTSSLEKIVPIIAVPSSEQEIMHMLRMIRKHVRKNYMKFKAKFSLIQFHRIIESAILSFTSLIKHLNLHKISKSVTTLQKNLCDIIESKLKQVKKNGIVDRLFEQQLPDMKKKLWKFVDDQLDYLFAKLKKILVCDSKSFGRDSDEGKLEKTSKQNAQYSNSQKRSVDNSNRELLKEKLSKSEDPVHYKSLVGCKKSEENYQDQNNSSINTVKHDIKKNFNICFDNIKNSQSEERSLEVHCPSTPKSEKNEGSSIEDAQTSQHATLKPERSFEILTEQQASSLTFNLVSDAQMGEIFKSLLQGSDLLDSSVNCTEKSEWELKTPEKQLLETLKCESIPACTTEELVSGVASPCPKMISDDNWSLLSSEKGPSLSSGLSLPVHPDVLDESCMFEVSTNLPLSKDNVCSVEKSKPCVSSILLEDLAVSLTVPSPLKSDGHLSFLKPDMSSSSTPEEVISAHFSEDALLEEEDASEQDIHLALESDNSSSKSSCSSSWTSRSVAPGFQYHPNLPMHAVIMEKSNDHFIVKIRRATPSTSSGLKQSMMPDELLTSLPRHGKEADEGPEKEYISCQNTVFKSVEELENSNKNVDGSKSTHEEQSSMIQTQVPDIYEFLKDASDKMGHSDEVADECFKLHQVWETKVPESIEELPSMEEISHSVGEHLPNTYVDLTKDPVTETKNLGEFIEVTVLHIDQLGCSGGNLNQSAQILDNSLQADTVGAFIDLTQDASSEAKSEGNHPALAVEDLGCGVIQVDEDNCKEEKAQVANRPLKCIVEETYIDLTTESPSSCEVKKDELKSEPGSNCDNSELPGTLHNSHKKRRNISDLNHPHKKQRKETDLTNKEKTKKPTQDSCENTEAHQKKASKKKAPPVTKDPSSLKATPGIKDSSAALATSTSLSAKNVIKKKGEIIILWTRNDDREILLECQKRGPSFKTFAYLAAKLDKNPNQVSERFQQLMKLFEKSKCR
UniProt Q96GX5: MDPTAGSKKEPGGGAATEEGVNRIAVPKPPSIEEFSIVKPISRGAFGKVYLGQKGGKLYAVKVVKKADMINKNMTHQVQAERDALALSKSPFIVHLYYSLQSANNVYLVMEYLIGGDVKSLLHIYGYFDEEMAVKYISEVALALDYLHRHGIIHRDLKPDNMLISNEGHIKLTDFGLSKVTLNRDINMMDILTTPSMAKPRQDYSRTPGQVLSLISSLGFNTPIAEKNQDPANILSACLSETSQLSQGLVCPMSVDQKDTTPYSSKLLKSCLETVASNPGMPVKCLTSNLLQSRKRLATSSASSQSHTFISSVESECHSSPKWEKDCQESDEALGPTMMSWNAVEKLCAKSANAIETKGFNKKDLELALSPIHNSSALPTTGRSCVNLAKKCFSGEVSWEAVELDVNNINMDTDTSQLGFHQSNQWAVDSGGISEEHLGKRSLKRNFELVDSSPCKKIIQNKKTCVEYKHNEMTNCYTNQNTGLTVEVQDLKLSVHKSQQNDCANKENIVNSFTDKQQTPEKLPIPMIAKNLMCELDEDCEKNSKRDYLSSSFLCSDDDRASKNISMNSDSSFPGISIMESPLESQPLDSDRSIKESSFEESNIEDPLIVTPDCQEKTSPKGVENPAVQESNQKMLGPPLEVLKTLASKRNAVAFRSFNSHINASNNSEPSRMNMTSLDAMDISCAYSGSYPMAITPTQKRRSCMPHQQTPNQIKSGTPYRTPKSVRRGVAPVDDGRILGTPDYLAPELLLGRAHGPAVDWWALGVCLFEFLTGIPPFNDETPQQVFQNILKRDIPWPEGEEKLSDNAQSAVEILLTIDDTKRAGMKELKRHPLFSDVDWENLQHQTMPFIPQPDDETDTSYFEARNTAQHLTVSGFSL
UniProt Q8WWP7: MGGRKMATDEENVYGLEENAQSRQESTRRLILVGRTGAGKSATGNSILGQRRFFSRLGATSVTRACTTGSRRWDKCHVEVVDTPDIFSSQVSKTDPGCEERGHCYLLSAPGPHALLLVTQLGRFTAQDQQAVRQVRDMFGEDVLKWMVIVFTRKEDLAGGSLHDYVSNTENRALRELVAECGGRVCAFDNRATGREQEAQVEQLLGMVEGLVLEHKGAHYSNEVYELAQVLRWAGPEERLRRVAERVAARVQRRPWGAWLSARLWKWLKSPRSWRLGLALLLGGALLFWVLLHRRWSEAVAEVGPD
UniProt Q15005: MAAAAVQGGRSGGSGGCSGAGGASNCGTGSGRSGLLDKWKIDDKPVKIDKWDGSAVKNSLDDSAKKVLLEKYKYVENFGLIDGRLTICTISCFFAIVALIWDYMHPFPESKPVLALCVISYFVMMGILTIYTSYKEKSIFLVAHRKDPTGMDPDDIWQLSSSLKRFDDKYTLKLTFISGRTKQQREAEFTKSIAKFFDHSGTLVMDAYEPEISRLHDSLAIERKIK
UniProt P07203, whole entry: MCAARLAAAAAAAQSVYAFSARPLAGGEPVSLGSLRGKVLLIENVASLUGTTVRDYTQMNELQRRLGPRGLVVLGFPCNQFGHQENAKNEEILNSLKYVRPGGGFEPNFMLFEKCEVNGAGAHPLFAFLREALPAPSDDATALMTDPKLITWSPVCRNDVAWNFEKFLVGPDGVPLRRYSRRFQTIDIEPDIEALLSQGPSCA
UniProt P57105: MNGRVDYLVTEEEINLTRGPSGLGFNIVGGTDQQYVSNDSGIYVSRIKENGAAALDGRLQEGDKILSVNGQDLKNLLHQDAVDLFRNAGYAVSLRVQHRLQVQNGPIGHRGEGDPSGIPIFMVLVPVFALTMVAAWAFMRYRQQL
UniProt Q9BSV6: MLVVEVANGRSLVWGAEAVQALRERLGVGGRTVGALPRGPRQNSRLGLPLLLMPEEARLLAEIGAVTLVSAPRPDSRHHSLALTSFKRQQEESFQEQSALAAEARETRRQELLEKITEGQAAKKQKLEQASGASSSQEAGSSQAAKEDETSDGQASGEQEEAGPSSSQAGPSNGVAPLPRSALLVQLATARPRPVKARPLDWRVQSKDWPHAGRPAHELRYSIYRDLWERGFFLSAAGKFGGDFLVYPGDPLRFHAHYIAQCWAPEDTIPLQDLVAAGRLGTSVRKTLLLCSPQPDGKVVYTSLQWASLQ
UniProt Q9H299: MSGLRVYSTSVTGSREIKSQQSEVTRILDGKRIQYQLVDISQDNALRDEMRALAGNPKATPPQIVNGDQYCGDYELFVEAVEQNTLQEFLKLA
UniProt Q9H223: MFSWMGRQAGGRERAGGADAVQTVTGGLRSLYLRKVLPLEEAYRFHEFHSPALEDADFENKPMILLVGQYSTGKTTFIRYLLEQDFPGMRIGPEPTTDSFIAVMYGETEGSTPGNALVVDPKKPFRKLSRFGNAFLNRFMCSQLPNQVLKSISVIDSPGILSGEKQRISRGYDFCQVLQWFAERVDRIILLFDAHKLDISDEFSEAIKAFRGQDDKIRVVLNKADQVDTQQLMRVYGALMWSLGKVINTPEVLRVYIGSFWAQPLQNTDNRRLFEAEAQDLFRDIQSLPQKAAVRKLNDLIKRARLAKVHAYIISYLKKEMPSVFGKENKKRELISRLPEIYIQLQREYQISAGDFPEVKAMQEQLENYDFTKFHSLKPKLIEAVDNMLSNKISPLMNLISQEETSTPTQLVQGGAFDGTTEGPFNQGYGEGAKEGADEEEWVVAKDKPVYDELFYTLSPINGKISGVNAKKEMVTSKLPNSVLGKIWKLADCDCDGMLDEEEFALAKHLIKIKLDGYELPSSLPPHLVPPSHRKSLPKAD

± gives the standard deviation of the averaged measurements. The list shows a part of the results, in another mix than the full data. Most entries show no effect beyond the scatter of the controls.

Compound in the test: Nc1ncnc2c1ncn2[C@@H]1O[C@H](COP(=O)(O)OP(=O)(O)NP(=O)(O)O)[C@@H](O)[C@H]1O [adenylyl imidodiphosphate]
Kind of test: NP40-soluble protein abundance relative to vehicle (solubility fold change) (ratio); higher = more soluble protein in presence of AMP-PNP. Summed up: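 Jurkat crude lysate (Dounce-homogenised) was treated with eight concentrations from 0.1 to 10 mM for 10 min at room temperature, then 3 min at 37 °C. It was solubilised with 0.8% NP40 and benzonase (60 min, 4 °C) and ultracentrifuged, and the supernatant was TMT-labelled for LC-MS/MS. Intensities were vsn-normalised, and the value is the fold change against the NP40-processed vehicle per replicate, from three independent experiments.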

Regarding “A0A075B6T1|Q9C0C7 and related entries (UniProt Q9C0C7)”, the NP40-soluble protein abundance came to 0.979 ± 0.012 (concentration: 0.1mM) and 0.989 ± 0.02 (concentration: 0.5mM).

For “A0A087WU64|A6NMQ1 and related entries (UniProt P09884)”, the NP40-soluble protein abundance came out at 0.962 ± 0.02 (concentration: 0.1mM) and 0.971 ± 0.019 (concentration: 0.5mM).

“A0A087WW14|Q0VDG4 and related entries (UniProt Q0VDG4)”: the NP40-soluble protein abundance (concentration: 0.1mM) worked out at 1 ± 0.021 and the NP40-soluble protein abundance (concentration: 0.5mM) is 0.974 ± 0.03.

For A0A087WUW9|Q9NXU5 (UniProt Q9NXU5), the NP40-soluble protein abundance reads like this: (concentration: 0.1mM) 0.973 ± 0.018; (concentration: 0.5mM) 1.01 ± 0.047.

In the case of A0A087WU65|Q9NRW7 (UniProt Q9NRW7), the NP40-soluble protein abundance is, setting by setting: (concentration: 0.1mM) 1.019 ± 0.0019; (concentration: 0.5mM) 0.974 ± 0.062.

As to “A0A087WV86|B5LMG6 and related entries (UniProt Q6PGQ7+B5LMG6)”, the NP40-soluble protein abundance (concentration: 0.1mM) was 1.01 ± 0.026 and the NP40-soluble protein abundance (concentration: 0.5mM) turned out to be 1 ± 0.029.

Consider A0A087WTW5|Q9UKL3 (UniProt Q9UKL3), for which the NP40-soluble protein abundance stood at 1.02 ± 0.035 (concentration: 0.1mM) and 1.01 ± 0.02 (concentration: 0.5mM).

In the case of “A0A075B738|P16284 and related entries (UniProt P16284)”, the NP40-soluble protein abundance is, setting by setting: (concentration: 0.1mM) 0.981 ± 0.015; (concentration: 0.5mM) 0.98 ± 0.031.

As to “A0A087WUU7|Q96GX5 and related entries (UniProt Q96GX5)”, the NP40-soluble protein abundance (concentration: 0.1mM) is 0.9886 ± 0.0034 and the NP40-soluble protein abundance (concentration: 0.5mM) came to 0.998 ± 0.039.

“A0A075B6T4|Q9NVX7 and related entries (UniProt Q9NVX7)”: the NP40-soluble protein abundance came out at 1.2 ± 0.086 (concentration: 0.1mM) and 0.981 ± 0.073 (concentration: 0.5mM).

Turning to “A0A087WU02|F8VPA6 and related entries (UniProt Q96RQ1)”, the NP40-soluble protein abundance reads like this: (concentration: 0.1mM) 0.999 ± 0.053; (concentration: 0.5mM) 1.01 ± 0.054.

Take A0A087WTJ2|Q8WWP7 (UniProt Q8WWP7): the NP40-soluble protein abundance runs as follows: (concentration: 0.1mM) 1.05 ± 0.012; (concentration: 0.5mM) 1.01 ± 0.014.

On to “A0A087WUX8|A0A087WYF7|Q6UXV4 (UniProt Q6UXV4)”, for which the NP40-soluble protein abundance is, setting by setting: (concentration: 0.1mM) 1.02 ± 0.056; (concentration: 0.5mM) 1.04 ± 0.036.

Take “A0A087WUK2|O14979 and related entries (UniProt O14979)”: the NP40-soluble protein abundance was 0.994 ± 0.056 (concentration: 0.1mM) and 1.05 ± 0.09 (concentration: 0.5mM).

With “A0A075B6F3|H0Y7V4 and related entries (UniProt Q96JB1)”, the NP40-soluble protein abundance came to 0.926 ± 0.074 (concentration: 0.1mM) and 0.956 ± 0.04 (concentration: 0.5mM).

Regarding A0A024RA52|P25787 (UniProt P25787), the NP40-soluble protein abundance (concentration: 0.1mM) amounted to 0.98 ± 0.01 and the NP40-soluble protein abundance (concentration: 0.5mM) turned out to be 1.01 ± 0.023.

On to “A0A087WUC6|E9PI68 and related entries (UniProt Q15005)”, for which the NP40-soluble protein abundance was determined as 1.01 ± 0.019 (concentration: 0.1mM) and 1 ± 0.013 (concentration: 0.5mM).

With “A0A087WTW0|A0A087WVR3|Q96T88 and related entries (UniProt Q96T88)”, the NP40-soluble protein abundance by setting is: (concentration: 0.1mM) 1 ± 0.027; (concentration: 0.5mM) 1.01 ± 0.033.

Turning to A0A087WUQ6|P07203 (UniProt P07203), the NP40-soluble protein abundance (concentration: 0.1mM) worked out at 1.005 ± 0.0051 and the NP40-soluble protein abundance (concentration: 0.5mM) amounted to 0.979 ± 0.055.

In the case of “A0A087WUS0|E7ETK0 and related entries (UniProt P62847)”, the NP40-soluble protein abundance runs as follows: (concentration: 0.1mM) 1.04 ± 0.058; (concentration: 0.5mM) 1.02 ± 0.057.

Regarding “A0A067XG54|Q8NB49 and related entries (UniProt Q8NB49)”, the NP40-soluble protein abundance runs as follows: (concentration: 0.1mM) 0.996 ± 0.054; (concentration: 0.5mM) 0.972 ± 0.047.

With A0A087WUH0|P28715 (UniProt P28715), the NP40-soluble protein abundance was determined as 0.988 ± 0.027 (concentration: 0.1mM) and 1.03 ± 0.018 (concentration: 0.5mM).

For the target A0A087WUM0 (UniProt P57105), the NP40-soluble protein abundance by setting is: (concentration: 0.1mM) 0.965 ± 0.026; (concentration: 0.5mM) 0.99 ± 0.041.

“A0A087WVF7|Q9NZM3 and related entries (UniProt Q9NZM3)”: the NP40-soluble protein abundance by setting is: (concentration: 0.1mM) 0.9725 ± 0.007; (concentration: 0.5mM) 1.01 ± 0.056.

On to A0A087WVP1|Q14517 (UniProt Q14517), for which the NP40-soluble protein abundance (concentration: 0.1mM) was 1.01 ± 0.052 and the NP40-soluble protein abundance (concentration: 0.5mM) was found to be 1.01 ± 0.073.

Turning to A0A075B6H4|Q9H8E8 (UniProt Q9H8E8), the NP40-soluble protein abundance (concentration: 0.1mM) stood at 1.02 ± 0.075 and the NP40-soluble protein abundance (concentration: 0.5mM) came out at 1.05 ± 0.03.

As to “A0A024RCR6|A0A0G2JK23|P46379 and related entries (UniProt P46379)”, the NP40-soluble protein abundance is 0.984 ± 0.043 (concentration: 0.1mM) and 0.966 ± 0.049 (concentration: 0.5mM).

In the case of “A0A024R7E8|K7EMV4 and related entries (UniProt P60002)”, the NP40-soluble protein abundance was 1.01 ± 0.044 (concentration: 0.1mM) and 1.06 ± 0.074 (concentration: 0.5mM).

For the target A0A087WTU3|Q9Y6I9 (UniProt Q9Y6I9), the NP40-soluble protein abundance reads like this: (concentration: 0.1mM) 0.9941 ± 0.0095; (concentration: 0.5mM) 0.995 ± 0.027.

For A0A024R1V6|P35227 (UniProt P35227), the NP40-soluble protein abundance by setting is: (concentration: 0.1mM) 1.01 ± 0.018; (concentration: 0.5mM) 1.03 ± 0.033.

For A0A024R4E5|Q00341 (UniProt Q00341), the NP40-soluble protein abundance is, setting by setting: (concentration: 0.1mM) 0.984 ± 0.019; (concentration: 0.5mM) 0.97 ± 0.011.

In the case of “A0A024R4N9|Q9BSV6 and related entries (UniProt Q9BSV6)”, the NP40-soluble protein abundance (concentration: 0.1mM) came out at 0.982 ± 0.022 and the NP40-soluble protein abundance (concentration: 0.5mM) is 0.986 ± 0.047.

Consider “A0A087WV23|Q5T123 and related entries (UniProt Q9H299)”, for which the NP40-soluble protein abundance by setting is: (concentration: 0.1mM) 0.987 ± 0.046; (concentration: 0.5mM) 1.04 ± 0.072.

In the case of A0A087WUA5|Q9H223 (UniProt Q9H223), the NP40-soluble protein abundance runs as follows: (concentration: 0.1mM) 1.02 ± 0.025; (concentration: 0.5mM) 0.9997 ± 0.0082.

With “A0A087WUZ9|Q16760 and related entries (UniProt Q16760)”, the NP40-soluble protein abundance reads like this: (concentration: 0.1mM) 0.979 ± 0.053; (concentration: 0.5mM) 0.971 ± 0.02.

For “A0A075B716|H0YN88 and related entries (UniProt P08708)”, the NP40-soluble protein abundance was 1.06 ± 0.035 (concentration: 0.1mM) and 1.03 ± 0.045 (concentration: 0.5mM).

With “A0A087WVQ6|Q00610 and related entries (UniProt Q00610)”, the NP40-soluble protein abundance was 1.01 ± 0.03 (concentration: 0.1mM) and 0.976 ± 0.076 (concentration: 0.5mM).
